# From patent US10125358B2, “Methods and compounds for increasing threonyl-tRNA synthetase activity” (UNIVERSITY OF VERMONT AND STATE AGRICULTURAL COLLEGE, priority 2012, dated 2018)
# Some of these results come from one statement about several compounds together.
# Test system: HUVEC
# Assay: TARS secretion into culture media (ELISA)
# Format: cell-based, human
# Conditions: HUVECs treated with 50 ng/ml for 6 h
substance,measurement,value
TNF-α,TARS in the media,> 1000 pg/mL
